Test results: publication PMC10163288
Some of the results follow.

B1: il10ra_site1_sap_13_mot_HHH_b1_02881_000000027_0001_1_20_H_._HHH_b1_05977_0001_0000300025_0000001_0_0001 (protein)
chain: SSSSSEEERYLRLTLRFIEWALEAGDEEAVRIALHVVERLAKEANDEEIEEEVERLQELLNSSSS
B2: il10ra_site1_sap_16_mot_HHH_b1_07527_000000076_0001_1_15_H_._HHH_b1_02962_0001_0000100003_0000001_1_0001 (protein)
chain: SSSSSSTEEEIERIVRELAEEFGLSEDAIRAVELAAKRNGASEREIEMMIRFQARAMSSSSSSSS
B3: il10ra_site1_normal_mot_HHH_b1_03065_af2_000000286_0001_1_17_H_._HHH_b1_01527_af2_0001_0000200006_0000002_0 (protein)
chain: SSSSTDEEYERIKELIKEANELQRRDPEEAEEVLREAKELAEELNNQALRFSIEHALRLVSSSSS
B4: il10ra_site1_normal_mot_HHH_b1_02997_000000220_0001_39_52_H_._HHH_b1_05536_0001_0000100001_0000001_1_af2pred_0001 (protein)
chain: SSSSDEEEAREALKLLEEAQKIEDPEEVRELLEEALELAEKANNEVLKRAIEERLRALKKSSSSS
B5: il10ra_site1_normal_mot_HHH_b1_06994_000000193_0001_40_55_H_._HHH_b2_02682_0001_0000300045_0000001_0 (protein)
chain: SSSSDLEELVRAAARLAEQALKAGDPRAARLLLRALEQALKRLGNPELLEEVEKLLEEIENSSSS
B6: il10ra_site1_sap_23_mot_HHH_b1_06128_000000102_0001_1_20_H_._HHH_b1_07535_0001_0000600011_0000002_0_0001 (protein)
chain: SSSSDEASRRIYELLREAAKLDHEGNPEEAQRVLEEALEIAEEGNNRVLAALIRWLIERIGSSSS
B7: il10ra_site1_sap_22_mot_HHH_b1_02397_af2_000000085_0001_39_57_H_._HHH_b2_06644_0001_0000100002_0000001_0_0001 (protein)
chain: SSSSDLEEYARRAAKFIRALLEAGNPEAAKSLLRALEDLAEKHNDPELREIVEELEELLGSSSSS
B8: il10ra_site1_normal_mot_HHH_b2_02497_000000220_0001_1_20_H_._HHH_b2_06953_af2_0001_0000400026_0000001_0 (protein)
chain: SSSSDEEEELRELIEEIEELQKEGDVDEFYKLARRVIEFAAEANNEELLRHLMEFLAHLFSSSSS
B9: il10ra_site1_sap_20_mot_HHH_b1_03390_000000031_0001_39_52_H_._HHH_b2_07573_af2_0001_0000400009_0000001_0_0001 (protein)
chain: SSSSDEEQEEILELLQEAFRLALRGNPEEARELVKRALELAEELGDERAAEMAEELLKSLSSSSS
B10: il10ra_site1_normal_mot_HHH_b2_00033_000000036_0001_41_54_H_._HHH_b1_00510_af2_0001_0001000017_0000002_0 (protein)
chain: SSSSSELEEELRELEEKAKELLERGDPEKAFQVLWRAAKVAAELNDKEALRELAELLREVFSSSS
B11: il10ra_site1_normal_mot_HHH_b1_08477_000000091_0001_40_57_H_._HHH_b1_06384_af2_0001_0000200009_0000001_0 (protein)
chain: SSSSDEEEKVKQALRFAKALAESGDEEAARLLLRQLASALEELNNPELLEEVEKLLEELGSSSSS
B12: il10ra_site1_normal_mot_HHH_b2_03220_af2_000000223_0001_23_40_H_._HHH_b2_00272_0001_0000200016_0000001_0 (protein)
chain: SSSSSTESEEVWELIREALELRAEGDPEEARRVLEEAEEIAEELNNFTFRFAIELLLRQLSSSSS
B13: il10ra_site1_normal_mot_HHH_b1_05185_000000011_0001_22_39_H_._HHH_b1_03083_0001_0000100002_0000001_1_af2pred_0001 (protein)
chain: SSSSDFEEAVELALKFIEHLIKRGSREAAKLLLRAAKDLAKRGNNEELEERVEELLEELRSSSSS
B14: il10ra_site1_sap_25_mot_HHH_b2_02497_000000141_0001_1_20_H_._HHH_b2_04390_0001_0000100001_0000001_1_0001 (protein)
chain: SSSSDRREIYELSRRVAELISDGNHEEAEKLLEEARRLVEELGDILLRFIVEFLEEDIEKTSSSS
B15: il10ra_site1_normal_mot_HHH_b2_06954_000000276_0001_1_20_H_._6c810305ec7c73c4190ef0a942592ab6_0001_1_0001_0000300002_0000001_0 (protein)
chain: DELEELARLVREDPNDEEAIQELALVLAHLFARDPDVVHLAFLLAEALREGDPEKLEEIAEEILK
B16: il10ra_site1_normal_mot_HHH_b2_06979_000000158_0001_42_57_H_._HHH_b1_03926_0001_0000400045_0000001_0 (protein)
chain: SSSSDVSQRIAELLRRAAELLNEGNPEEAEELVEEALELAQENNNELLAINAEYLLRDVRSSSSS
B17: il10ra_site1_sap_21_mot_HHH_b2_04680_000000215_0001_1_16_H_._HHH_b2_03705_0001_0000100007_0000002_0_0001 (protein)
chain: SSSSSEEREELYELSREAAELAARGDPEEAQKVLEEAHELAEEANNRLFLHVLRFLLRNISSSSS
B18: il10ra_site1_normal_mot_HHH_b1_05056_000000217_0001_1_20_H_._HHH_b2_00498_0001_0000300036_0000001_1 (protein)
chain: SSSSDEEREEVEELLEEAEQIEDPRERARVLQEATHIALEAGDPEALRLVWRVVKELFRRSSSSS
B19: il10ra_site1_sap_15_mot_HHH_b2_02736_000000092_0001_22_38_H_._HHH_b2_05213_af2_0001_0000300020_0000002_0_0001 (protein)
chain: SSSSDAELSERVWELLRRALHIDDPEERREVLEEAEELAREAGNRVLLIVIEFLIKDLEESSSSS
B20: il10ra_site1_sap_21_mot_HHH_b2_07488_000000216_0001_1_17_H_._31920f510a6589983022af97b9178b34_0001_1_af2_0001_0000400004_0000001_0_0001_af2pred_0001 (protein)
chain: SSSSDRLEEALKRTEEELKFAEEHGDERAARLLAKAAADLARQLGDEERLEKIEKILEELSSSSS
B21: il10ra_site1_sap_19_mot_HHH_b1_01585_000000217_0001_1_18_H_._HHH_b1_05870_af2_0001_0000200018_0000002_0_0001 (protein)
chain: SSSSSRAEKVREILEEVVELQRQGDKEEAERLLEELLEELEELGDVNSLVNVEYLLRAVRKSSSS
B22: il10ra_site1_normal_mot_HHH_b1_05357_000000034_0001_23_39_H_._HHH_b2_03756_0001_0000100003_0000001_0_af2pred_0001 (protein)
chain: SSSSDEEEEVEELLRRAEELAKEGDRHEVAYLLIRAFAVASRLGDPELERLVEEVAKRLLSSSSS
B23: il10ra_site1_normal_mot_HHH_b2_00475_000000107_0001_44_57_H_._HHH_b1_00174_af2_0001_0000200014_0000001_0 (protein)
chain: SSSSDEEEQRVAEILYRALRALFNGDPERAEELLEEARKIAEENNDEELQRYVEILRHFVSSSSS
B24: il10ra_site1_normal_mot_HHH_b1_04693_000000238_0001_19_36_H_._HHH_b1_01019_0001_0000400025_0000001_0 (protein)
chain: SSSSSDKEEEAEELLEELEELLKHVTAQERYELVEKVIKFVLRLGNAQLARRAVELFIEVSSSSS
B25: il10ra_site1_normal_mot_HHH_b2_07784_af2_000000103_0001_19_36_H_._HHH_b1_02165_af2_0001_0000400013_0000002_0 (protein)
chain: SSSSSEYYEEVKRLLQEVVELLRNGDPEEAEKLLRELQELVEENNDDATRAQVEFLLELVRSSSS
B26: il10ra_site1_sap_4_mot_HHH_b1_03250_000000283_0001_1_15_H_._a02a9d7a4e683ace6aeae6907a935438_0001_af2_0001_0000200003_0000001_0_0001_af2pred_0001 (protein)
chain: SSSSDLEERARLTLRFIEWLLKEGDPEAAERLLRALKELIERLGDEELEEELERLEELLNSSSSS
B27: il10ra_site1_normal_mot_HHH_b1_06789_af2_000000041_0001_1_20_H_._HHH_b2_07878_af2_0001_0000400014_0000001_0_af2pred_dldesign_0_af2pred (protein)
chain: SSSSSAAKLYVDQALRAARILKEAGDEEGVAKTLEKAREIAENAKDPELIARVAEEEARLRSSSS
B28: il10ra_site1_sap_16_mot_HHH_b1_00999_000000080_0001_41_55_H_._HHH_b2_06260_0001_0000300019_0000001_0_0001_af2pred_0001 (protein)
chain: SSSSNEEEKVLQLLLEVARLLLEGNKEEAEEILEEARRIAEELGDPKLRLSVRALEYTIRSSSSS
B29: il10ra_site1_normal_mot_HHH_b1_01821_000000158_0001_23_39_H_._HHH_b2_04674_0001_0000300027_0000002_0 (protein)
chain: SSSSDEEEERLEELLRELKELVEEGDEEEFRQVALELLQLAEENNDQEVLQRLWELFKLLFSSSS
B30: il10ra_site1_normal_mot_HHH_b1_00999_000000080_0001_41_55_H_._HHH_b2_04868_0001_0000200013_0000001_0 (protein)
chain: SSSSDEEELQERVEELLEEAREIEDPREAARLLLEATQLALEGQDPELLQLVWEVVKELGSSSSS
B31: il10ra_site1_normal_mot_HHH_b1_05056_000000217_0001_1_20_H_._HHH_b1_00422_0001_0000300026_0000002_0 (protein)
chain: SSSSSSSVEEEVEELLEEAKEVDQEERAELLLRALRFAWKHNDEELLRLIWEVVQELASSSSSSS
B32: il10ra_site1_sap_27_mot_a237db91e5dae9a764afea8a79d812a9_0001_000000122_0001_15_30_H_._HHH_b2_03929_af2_0001_0000100002_0000001_1_0001_af2pred_dldesign_0_af2pre … (protein)
chain: SSSSSSDPRAEVDALLEEARKEEDREKRSHLLLQAYGLAVKAQDPELVARVRAVARELASSSSSS
B33: il10ra_site1_sap_17_mot_6805e7cfcec1a9f49da1e1cd80eb4878_0001_af2_000000116_0001_1_14_H_._a539779be5f6f4376e8130ba938be24e_0001_0001_0000200011_0000002_0_0001_a … (protein)
chain: SSSSSEEEEELEKLEEELERLLEEGDEEEAFKVAIRLAILAFKLGDEEALKKVAEVLRRLSSSSS
B34: il10ra_site1_sap_22_mot_HHH_b2_05343_000000235_0001_19_35_H_._1c4a7000c98f6bc3c941df408db38b63_0001_0001_0000300003_0000002_0_0001 (protein)
chain: SSSSSSDEEAFELLREAAEAAREDPEEAEEILERAREIAEEAGNELLLWQIEFLLRRLSSSSSSS
B35: il10ra_site1_sap_25_mot_9c3e5e2d2b9ffb70dc788f52fbfab6d5_0001_1_000000198_0001_1_14_H_._HHH_b1_04864_0001_0000300029_0000001_0_0001 (protein)
chain: SSSSDEELQRALELVLEAFRLALRGDPEEARRVLEEALELAEEANDERLAEQIRAMLRAVKSSSS
B36: il10ra_site1_normal_mot_39ab2cb694c8b9c1dc7e65c0d672c93e_0001_000000036_0001_53_65_H_._HHH_b1_03020_0001_0000400011_0000001_0 (protein)
chain: SSSSSSEEFEERVEELLERLHEVSPEERYKLLQEALRLAYQARNEELLQEIWEAAKKLAKSSSSS
B37: il10ra_site1_sap_19_mot_HHH_b2_05984_000000071_0001_38_52_H_._HHH_b2_02479_0001_0000300006_0000001_0_0001_af2pred_dldesign_0_af2pred (protein)
chain: SSSSDPEREALEKALRYLKFLIEAGDKEAVEKYLAKLRFLAEQLKDAEAEKELAELEKKLSSSSS

target: il10ra, Q13651; assay: yeast display titration

Apparent Kd, inactive:
B1 no binding seen
B2 no binding seen
B3 no binding seen
B4 no binding seen
B5 no binding seen
B6 no binding seen
B7 no binding seen
B8 no binding seen
B9 no binding seen
B10 no binding seen
B11 no binding seen
B12 no binding seen
B13 no binding seen
B14 no binding seen
B15 no binding seen
B16 no binding seen
B17 no binding seen
B18 no binding seen
B19 no binding seen
B20 no binding seen
B21 no binding seen
B22 no binding seen
B23 no binding seen
B24 no binding seen
B25 no binding seen
B26 no binding seen
B27 no binding seen
B28 no binding seen
B29 no binding seen
B30 no binding seen
B31 no binding seen
B32 no binding seen
B33 no binding seen
B34 no binding seen
B35 no binding seen
B36 no binding seen
B37 no binding seen

No new results follow: an excerpt of the list.
Apparent Kd, inactive:
B31 no binding seen
B32 no binding seen
